According to patent US20220017861A1, “UREMIC VASCULOPATHY MODEL USING ENDOTHELIAL CELLS DERIVED FROM INDUCED PLURIPOTENT STEM CELLS AND UREMIC COMPLEX, AND USE THEREOF” (SAMSUNG LIFE PUBLIC WELFARE FOUNDATION, priority 2018, published 2022):
For at least one compound, name, drawing or mass did not settle the structure.

System: endothelial cells differentiated from induced pluripotent stem cells
Test: Apoptosis of endothelial cells (Caspase-Glo 3/7 assay)
Assay type: cell-based
Settings: single uremic toxin at 1 mM, FIG. 7
Method: , apoptosis of endothelial cell was measured according to the manufactural instructions using the Caspase-Glo 3/7 assay systems kit (Promega, catalog number G8091), and the results are shown in FIG. 4.

Compound: CN1CC(=O)NC1=N [creatinine, Creatinine]
- apoptosis of endothelial cells: not significantly promoted
